From US20100234238A1, “METHOD FOR PROFILING KINASE INHIBITORS” (Janssen Pharmaceutica N V, priority 2006, published 2010)
The source gives many values for each of these; only a part stands here.

Tested on: tyrosine kinase activity in lysates prepared from cell lines
Experiment: PAMCHIP96 tyrosine peptide array profiling of lysates of 27 cell lines in absence or presence of MTKI
Format: biochemical
Conditions: 5 μM
Text: PAMGENE technology using the tyrosine peptide PAMCHIP96 allows the kinetic detection of the phosphorylation of 144 tyrosine peptides spotted onto a 3-dimensional porous well of a 96-well plate (www.pamgene.com). This technology can be used to measure the activity of purified kinases and the effects of kinase inhibitors thereon. Phosphotyrosine peptides are detected using a mix of fluorescently labeled anti-phosphotyrosine antibodies. Phosphorylation of peptides can be followed in real time due to the possibility of removing the reaction mix for a few seconds during the assay by a pumping mechanism to allow CCD camera detection of phosphopeptides bound to the fluorescent antibody. These consecutive datapoints (quantified spot images) generate a kinetic curve for each individual peptide, and allow for the calculation of initial velocities and endpoints associated with each individual peptide.
Cells cultured in appropriate medium in T175 flasks, treated with compound if necessary, are harvested at 70-90% confluency.
Media is removed, cells are washed with 10 ml ice cold PBS containing 0.1 mM NaVO4 and lysed in 1 ml of M-PER buffer (PIERCE) containing phosphatase and protease inhibitors (HALT, PIERCE). Cells are collected by scraping, and centrifuged for 10 minutes at 12 000×g. Supernatant lysates are filtered through a 0.2 micrometer filter (Anotop 0.2 μm anopore filter; Whatmann). Lysates are flash frozen in liquid nitrogen and stored at −80C.
Just prior to the PAMCHIP experiment, total protein content is quantitated in the lysates and lysates are diluted to 1 mg/ml in a total volume of 200 μl, with M-PER phosphatase and protease inhibitors (HALT, PIERCE). 10 μg of total lysate (corresponding to 10 μl) will be used per well on the PAMCHIP96.
To all 200 μl lysates 10 units of benzonase (Novagen) is added and lysates are further incubated for 30 min on ice and next centrifuged for 10 minutes at 12 000×g. The supernatant is then 1:1 diluted with compound or DMSO diluted to the appropriate concentration in water, and lysates are further incubated exactly 60 min on ice. Meanwhile, a PAMCHIP96 tyrosine peptide chip (PAMGENE) is blocked with 2% BSA (filtered through a 0.2 μm anopore filter; Whatmann) using the standard setting of a PAMSTATION96 (PAMGENE).
The composition of the kinase buffer is as follows: 1×ABL buffer (NEB), 0.5 mg/ml BSA (from 10 mg/ml NEB stock), 100 μM ATP (dissolved and diluted in 1×ABL buffer), 5 μg/ml PY20-FITC (ExAlpha Biologicals, azide-free preparation). A twofold concentrated kinase buffer is prepared chilled on ice, DMSO or compound is added as appropriate, and the solution is added 1:1 to the (compound treated) ice cold lysates, and immediately applied to a tyrosine peptide PAMCHIP96. The assay is run on a PAMSTATION96 according to standard procedures: after loading of the plate, solution is pumped once onto the wells, a first exposure is read (150 mSec) and then a kinetic reading program (reading every 5 min for 150 mSec) is run for 60 min. Lysates are run in 6 technical replicates for each condition; replicates are always applied horizontally next to each other to avoid vertical strip effects of the chip.
The data (spot images) are further quantified and linked to the peptide identities using EVOLVE PAMGRID software (PAMGENE). The quantified data are then fit to a curve using CurveFitHT software (PAMGENE) using the Vinip2 curve fitting algorithm, applied on the first 30 min of the assay; the initial velocity is derived at the first kinetic time point read. All subsequent data analyses were done on initial velocities (Vini) using the software packages Omniviz and R (Ihaka, R. and Gentlemen, R. (1996) R: a language for data analysis and graphics. J. Comput. Graph. Stat., 5, 299-314).
After replacing the Vini's lower than 0.1 by 0.1, all Vini's were log 2-transformed to approach normality.

COc1cc2ncnc3c2cc1OCCCCCN(C)Cc1ccc(Br)cc1N3 [MTKI, 4,6-ethanediylidenepyrimido[4,5-b][6,1,12]benzoxadiazacyclopentadecine, 17-bromo-8,9,10,11,12,13,14,19-octahydro-20-methoxy-13-methyl-]
ratio of initial velocity of peptide phosphorylation (H23 lysate, TYRO3_679_691_Y686): 1.10 | ratio of initial velocity of peptide phosphorylation (H322 lysate, GSK3B_209_221_Y216): 0.94 | ratio of initial velocity of peptide phosphorylation (H1650 lysate, CDK7_157_169_S164): 0.82 | ratio of initial velocity of peptide phosphorylation (H1650 lysate, CREB1_122_134_Y134/S133): 0.88 | ratio of initial velocity of peptide phosphorylation (H1650 lysate, DDR2_733_745_Y740): 0.85 | ratio of initial velocity of peptide phosphorylation (H1650 lysate, ENOG_37_49_Y43): 0.73 | ratio of initial velocity of peptide phosphorylation (H1650 lysate, GSK3B_209_221_Y216): 0.79 | ratio of initial velocity of peptide phosphorylation (H1650 lysate, MK10_216_228_T221/Y223): 0.69 | ratio of initial velocity of peptide phosphorylation (H1650 lysate, NCF1_313_325_S315/S320): 0.92 | ratio of initial velocity of peptide phosphorylation (H1650 lysate, NPT2_501_513_T508): 0.91 | ratio of initial velocity of peptide phosphorylation (H1650 lysate, PECA1_706_718_Y713): 0.70 | ratio of initial velocity of peptide phosphorylation (H1650 lysate, PGFRB_768_780_Y771/Y775/Y778): 0.32 | ratio of initial velocity of peptide phosphorylation (H1650 lysate, PLCG1_764_776_Y771): 0.84 | ratio of initial velocity of peptide phosphorylation (H1650 lysate, PRRX2_202_214_Y214): 0.91 | ratio of initial velocity of peptide phosphorylation (H1650 lysate, RASA1_453_465_Y460): 0.98 | ratio of initial velocity of peptide phosphorylation (H1650 lysate, STAT2_683_695_Y690): 0.85 | ratio of initial velocity of peptide phosphorylation (H1650 lysate, SYN1_2_14_S9): 0.83 | ratio of initial velocity of peptide phosphorylation (H1650 lysate, TYRO3_679_691_Y686): 0.90 | ratio of initial velocity of peptide phosphorylation (H2009 lysate, CDK7_157_169_S164): 0.89 | ratio of initial velocity of peptide phosphorylation (H2009 lysate, CREB1_122_134_Y134/S133): 0.97 | ratio of initial velocity of peptide phosphorylation (H2009 lysate, DDR2_733_745_Y740): 0.95 | ratio of initial velocity of peptide phosphorylation (H2009 lysate, ENOG_37_49_Y43): 0.81 | ratio of initial velocity of peptide phosphorylation (H2009 lysate, GSK3B_209_221_Y216): 1.00 | ratio of initial velocity of peptide phosphorylation (H2009 lysate, MK10_216_228_T221/Y223): 0.89 | ratio of initial velocity of peptide phosphorylation (H2009 lysate, NCF1_313_325_S315/S320): 0.89 | ratio of initial velocity of peptide phosphorylation (H2009 lysate, NPT2_501_513_T508): 0.76 | ratio of initial velocity of peptide phosphorylation (H2009 lysate, PECA1_706_718_Y713): 0.79 | ratio of initial velocity of peptide phosphorylation (H2009 lysate, PGFRB_768_780_Y771/Y775/Y778): 0.43 | ratio of initial velocity of peptide phosphorylation (H2009 lysate, PLCG1_764_776_Y771): 0.81 | ratio of initial velocity of peptide phosphorylation (H2009 lysate, PRRX2_202_214_Y214): 0.90 | ratio of initial velocity of peptide phosphorylation (H2009 lysate, RASA1_453_465_Y460): 0.83 | ratio of initial velocity of peptide phosphorylation (H2009 lysate, STAT2_683_695_Y690): 0.84 | ratio of initial velocity of peptide phosphorylation (H2009 lysate, SYN1_2_14_S9): 0.93 | ratio of initial velocity of peptide phosphorylation (H2009 lysate, TYRO3_679_691_Y686): 0.89 | ratio of initial velocity of peptide phosphorylation (H2122 lysate, GSK3B_209_221_Y216): 0.84 | ratio of initial velocity of peptide phosphorylation (H3255 lysate, GSK3B_209_221_Y216): 0.60 | ratio of initial velocity of peptide phosphorylation (HEK239 lysate, CDK7_157_169_S164): 1.20 | ratio of initial velocity of peptide phosphorylation (HEK239 lysate, CREB1_122_134_Y134/S133): 1.08 | ratio of initial velocity of peptide phosphorylation (HEK239 lysate, DDR2_733_745_Y740): 1.00 | ratio of initial velocity of peptide phosphorylation (HEK239 lysate, ENOG_37_49_Y43): 0.96 | ratio of initial velocity of peptide phosphorylation (HEK239 lysate, GSK3B_209_221_Y216): 1.18 | ratio of initial velocity of peptide phosphorylation (HEK239 lysate, MK10_216_228_T221/Y223): 0.75 | ratio of initial velocity of peptide phosphorylation (HEK239 lysate, NCF1_313_325_S315/S320): 0.96 | ratio of initial velocity of peptide phosphorylation (HEK239 lysate, NPT2_501_513_T508): 0.89 | ratio of initial velocity of peptide phosphorylation (HEK239 lysate, PECA1_706_718_Y713): 1.00 | ratio of initial velocity of peptide phosphorylation (HEK239 lysate, PLCG1_764_776_Y771): 1.02 | ratio of initial velocity of peptide phosphorylation (HEK239 lysate, PRRX2_202_214_Y214): 1.30 | ratio of initial velocity of peptide phosphorylation (HEK239 lysate, RASA1_453_465_Y460): 0.89 | ratio of initial velocity of peptide phosphorylation (HEK239 lysate, STAT2_683_695_Y690): 1.03 | ratio of initial velocity of peptide phosphorylation (HEK239 lysate, SYN1_2_14_S9): 0.92 | ratio of initial velocity of peptide phosphorylation (HEK239 lysate, TYRO3_679_691_Y686): 0.93 | ratio of initial velocity of peptide phosphorylation (HT1373 lysate, CDK7_157_169_S164): 1.10 | ratio of initial velocity of peptide phosphorylation (HT1373 lysate, CREB1_122_134_Y134/S133): 0.95 | ratio of initial velocity of peptide phosphorylation (HT1373 lysate, DDR2_733_745_Y740): 0.92 | ratio of initial velocity of peptide phosphorylation (HT1373 lysate, ENOG_37_49_Y43): 0.87 | ratio of initial velocity of peptide phosphorylation (HT1373 lysate, GSK3B_209_221_Y216): 0.97 | ratio of initial velocity of peptide phosphorylation (HT1373 lysate, MK10_216_228_T221/Y223): 0.87 | ratio of initial velocity of peptide phosphorylation (HT1373 lysate, NCF1_313_325_S315/S320): 1.02 | ratio of initial velocity of peptide phosphorylation (HT1373 lysate, NPT2_501_513_T508): 1.00 | ratio of initial velocity of peptide phosphorylation (HT1373 lysate, PECA1_706_718_Y713): 0.86 | ratio of initial velocity of peptide phosphorylation (HT1373 lysate, PLCG1_764_776_Y771): 0.76 | ratio of initial velocity of peptide phosphorylation (HT1373 lysate, PRRX2_202_214_Y214): 0.91 | ratio of initial velocity of peptide phosphorylation (HT1373 lysate, RASA1_453_465_Y460): 0.78 | ratio of initial velocity of peptide phosphorylation (HT1373 lysate, STAT2_683_695_Y690): 0.97 | ratio of initial velocity of peptide phosphorylation (HT1373 lysate, SYN1_2_14_S9): 0.92 | ratio of initial velocity of peptide phosphorylation (HT1373 lysate, TYRO3_679_691_Y686): 0.87 | ratio of initial velocity of peptide phosphorylation (MCF7 lysate, CDK7_157_169_S164): 0.89 | ratio of initial velocity of peptide phosphorylation (MCF7 lysate, CREB1_122_134_Y134/S133): 0.85 | ratio of initial velocity of peptide phosphorylation (MCF7 lysate, DDR2_733_745_Y740): 1.15 | ratio of initial velocity of peptide phosphorylation (MCF7 lysate, ENOG_37_49_Y43): 0.83 | ratio of initial velocity of peptide phosphorylation (MCF7 lysate, GSK3B_209_221_Y216): 0.89 | ratio of initial velocity of peptide phosphorylation (MCF7 lysate, MK10_216_228_T221/Y223): 1.03 | ratio of initial velocity of peptide phosphorylation (MCF7 lysate, NCF1_313_325_S315/S320): 0.90 | ratio of initial velocity of peptide phosphorylation (MCF7 lysate, NPT2_501_513_T508): 0.90 | ratio of initial velocity of peptide phosphorylation (MCF7 lysate, PECA1_706_718_Y713): 0.74 | ratio of initial velocity of peptide phosphorylation (MCF7 lysate, PLCG1_764_776_Y771): 0.78 | ratio of initial velocity of peptide phosphorylation (MCF7 lysate, PRRX2_202_214_Y214): 0.90 | ratio of initial velocity of peptide phosphorylation (MCF7 lysate, RASA1_453_465_Y460): 0.81 | ratio of initial velocity of peptide phosphorylation (MCF7 lysate, STAT2_683_695_Y690): 0.91 | ratio of initial velocity of peptide phosphorylation (MCF7 lysate, SYN1_2_14_S9): 0.92
